# Measured values from the supplement of paper PMC6658780.
# Structures can show the parent of a compound that is named as a salt. ± gives the standard deviation of the averaged measurements. The list shows a part of the results. This data set is noisy: repeats of one test often differ as much as different tests do.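 The A. baumannii strains are clinical isolates chosen because they resist the partner antibiotic, and the screen looks for drugs that restore that antibiotic's effect. The reading at the start of incubation is subtracted to remove background from coloured compounds.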
# Test system: Acinetobacter baumannii WP-487
# Assay: percent growth inhibition of drug alone vs DMSO control; higher = more growth inhibition
# Settings: antibiotic (0.125x MIC): none (0.1% DMSO); 7 µM
# Experimental: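 Prestwick drugs tested at 20 uM and 7 uM with an antibiotic at 0.125x MIC (16 mg/L when MIC >128 mg/L) in cation-adjusted Mueller-Hinton broth, 384-well plates, duplicate runs on different days. Percent growth inhibition was computed from OD600 (24 h minus 0 h) relative to DMSO-only wells. Drug + 0.1% DMSO (no antibiotic) wells are also given. Only hits (max corrected inhibition > mean + 3SD) are listed. A. baumannii: NCTC-13301 was used for MEM/CIP/GEN/TGC and WP-487 for colistin. Duplicates with colistin are strongly discordant (run 2 near 100% for most drugs).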
row,Structure (SMILES),percent growth inhibition of drug alone
1,CN(C)C(=O)Oc1ccc[n+](C)c1 [Pyridostigmine iodide],2.83 ± 7.9%
2,COc1ccc(CCN2CCC(Nc3nc4ccccc4n3Cc3ccc(F)cc3)CC2)cc1 [Astemizole],4.46 ± 5.8%
3,OC(c1ccccc1)(c1ccccc1)C1CCNCC1 [Azacyclonol],7.14 ± 5.4%
4,Fc1ccc(C(OCCN2CCN(CCCc3ccccc3)CC2)c2ccc(F)cc2)cc1,-6.16 ± 14%
5,CC(C)c1c(CN(C)C(C)Cc2ccccc2)n(C)n(-c2ccccc2)c1=O (stereo not given) [Famprofazone],4.57 ± 4.5%
6,CCC(=O)O[C@H]1CC[C@H]2[C@@H]3CCC4=CC(=O)CC[C@]4(C)[C@H]3CC[C@]12C [Testosterone propionate],-3.84 ± 8.8%
7,c1ccc2c(c1)Nc1ccccc1S2 [Phenothiazine],3.41 ± 1.8%
8,CC(Cc1ccccc1)NCCC(c1ccccc1)c1ccccc1 (stereo not given) [Prenylamine lactate],0.836 ± 11%
9,O=c1[nH]c2ccccc2n1C1CCN(CCCC(c2ccc(F)cc2)c2ccc(F)cc2)CC1 [Pimozide],-3.69 ± 10%
10,CN1[C@@H]2CC[C@H]1C[C@@H](OC1c3ccccc3CCc3ccccc31)C2 [Deptropine citrate],2.96 ± 3%
11,CC(=O)O[C@H]1CC[C@@]2(C)C(=CC[C@@H]3[C@@H]2CC[C@]2(C)C(=O)CC[C@@H]32)C1 [Dehydroisoandosterone 3-acetate],0.473 ± 11%
12,C[C@]12CC[C@@H]3c4ccc(OC(=O)N(CCCl)CCCl)cc4CC[C@H]3[C@@H]1CC[C@@H]2O [Estramustine],6.56 ± 0.46%
13,O=c1c2ccccc2[se]n1-c1ccccc1 [Ebselen],5.62 ± 0.97%
14,CN[C@@H]1C[C@@H](c2ccc(Cl)c(Cl)c2)c2ccccc21 [Indatraline hydrochloride],1.53 ± 6.4%
15,Cc1cc(C(C#N)c2ccc(Cl)cc2)c(Cl)cc1NC(=O)c1cc(I)cc(I)c1O (stereo not given) [Closantel],11.4 ± 0.91%

# Same assay, conditions: antibiotic (0.125x MIC): none (0.1% DMSO); 20 µM
row,Structure (SMILES),percent growth inhibition of drug alone
1,CN(C)C(=O)Oc1ccc[n+](C)c1 [Pyridostigmine iodide],0.311 ± 0.19%
2,COc1ccc(CCN2CCC(Nc3nc4ccccc4n3Cc3ccc(F)cc3)CC2)cc1 [Astemizole],-0.743 ± 0.037%
3,OC(c1ccccc1)(c1ccccc1)C1CCNCC1 [Azacyclonol],-3.09 ± 4.3%
4,Fc1ccc(C(OCCN2CCN(CCCc3ccccc3)CC2)c2ccc(F)cc2)cc1,-4.16 ± 4.7%
5,CC(C)c1c(CN(C)C(C)Cc2ccccc2)n(C)n(-c2ccccc2)c1=O (stereo not given) [Famprofazone],-0.971 ± 5.2%
6,CCC(=O)O[C@H]1CC[C@H]2[C@@H]3CCC4=CC(=O)CC[C@]4(C)[C@H]3CC[C@]12C [Testosterone propionate],-1.84 ± 2.2%
7,c1ccc2c(c1)Nc1ccccc1S2 [Phenothiazine],1.98 ± 1.9%
8,CC(Cc1ccccc1)NCCC(c1ccccc1)c1ccccc1 (stereo not given) [Prenylamine lactate],-0.0895 ± 2.3%
9,O=c1[nH]c2ccccc2n1C1CCN(CCCC(c2ccc(F)cc2)c2ccc(F)cc2)CC1 [Pimozide],5.44 ± 7.9%
10,CN1[C@@H]2CC[C@H]1C[C@@H](OC1c3ccccc3CCc3ccccc31)C2 [Deptropine citrate],1.62 ± 0.78%
11,CC(=O)O[C@H]1CC[C@@]2(C)C(=CC[C@@H]3[C@@H]2CC[C@]2(C)C(=O)CC[C@@H]32)C1 [Dehydroisoandosterone 3-acetate],0.113 ± 4%
12,C[C@]12CC[C@@H]3c4ccc(OC(=O)N(CCCl)CCCl)cc4CC[C@H]3[C@@H]1CC[C@@H]2O [Estramustine],4.77 ± 8.4%
13,O=c1c2ccccc2[se]n1-c1ccccc1 [Ebselen],27.8 ± 29%
14,CN[C@@H]1C[C@@H](c2ccc(Cl)c(Cl)c2)c2ccccc21 [Indatraline hydrochloride],4.31 ± 4.2%
15,Cc1cc(C(C#N)c2ccc(Cl)cc2)c(Cl)cc1NC(=O)c1cc(I)cc(I)c1O (stereo not given) [Closantel],23.5 ± 0.93%
